Laboratory results as given in patent US8653050B2, “Phenyl bicyclic methyl amine derivatives as sphingosine-1 phosphate receptors modulators” (Allergan, Inc., priority 2011, dated 2014).
Some entries share one result that the patent states for a list of compounds. The name of at least one read-out is uncertain.

Each molecule was assayed on female C57BL6 mice (assay: Lymphopenia assay in mice (in vivo blood lymphocyte depletion)). Conditions: subcutaneous, 10 mg/Kg or 2 mg/Kg, 24 hours after dosing.
Method: Test drugs are prepared in a solution containing 3% (w/v) 2-hydroxy propyl R-cyclodextrin (HPBCD) and 1% DMSO to a final concentration of 1 mg/ml, and subcutaneously injected to female C57BL6 mice (CHARLES RIVERS) weighing 20-25 g at the dose of 10 mg/Kg. Blood samples are obtained by puncturing the submandibular skin with a Goldenrod animal lancet at 5, 24, 48, 72, and 96 hrs post drug application. Blood is collected into microvettes (SARSTEDT) containing EDTA tripotassium salt. Lymphocytes in blood samples are counted using a HEMAVET Multispecies Hematology System, HEMAVET HV950FS (Drew Scientific Inc.). (Hale, J. et al Bioorg. & Med. Chem. Lett. 14 (2004) 3351).
A lymphopenia assay in mice, as previously described, was employed to measure the in vivo blood lymphocyte depletion after dosing Compounds 9, 10, 11 and 14, (FIG. 1) and Compounds 15, 17, 18 and 20, (FIG. 2). These S1P agonists (or modulators) are useful for S1P-related diseases, and exemplified by the lymphopenia in vivo response. In general, test compounds were prepared in a solution containing 3% (w/v) 2-hydroxy propyl β-cyclodextrin (HPBCD) and 1% DMSO to a final concentration of 1 mg/ml, and subcutaneously injected to female C57BL6 mice (CHARLES RIVERS) weighing 20-25 g at the dose of 10 mg/Kg or 2 mg/Kg. Blood samples were obtained by puncturing the submandibular skin with a Goldenrod animal lancet at 24, 48, 72 and 96 hrs post drug application. Blood was collected into microvettes (SARSTEDT) containing EDTA tripotassium salt. Lymphocytes in blood samples were counted using a HEMAVET Multispecies Hematology System, HEMAVET HV950FS (Drew Scientific Inc.).
With `CCCCCCCc1ccc(-c2ccc(CNCCCP(=O)(O)O)c3ncccc23)c(F)c1` [Compound 9, [3-({[5-(2-fluoro-4-heptylphenyl)quinolin-8-yl]methyl}amino)propyl]phosphonic acid] the “lymphocyte count after 24 hours (number of lymphocytes)” value (“lymphocyte count after 24 hours” below) was < 1 10^3/μL blood.
In the case of `CCCCCCCc1ccc(-c2ccc(CNCCCP(=O)(O)O)c3ncccc23)cc1F` [Compound 10, [3-({[5-(3-fluoro-4-heptylphenyl)quinolin-8-yl]methyl}amino)propyl]phosphonic acid], the “lymphocyte count after 24 hours” value is reported as < 1 10^3/μL blood.
In the case of `CCCCC(CC)CCc1ccc(-c2ccc(CNCCCP(=O)(O)O)c3ncccc23)cc1` (centres unmarked) [Compound 11, {3-[({5-[4-(3-ethylheptyl)phenyl]quinolin-8-yl}methyl)amino]propyl}phosphonic acid], the “lymphocyte count after 24 hours” value is reported as < 1 10^3/μL blood.
With `O=P(O)(O)CCCNCc1ccc(-c2ccc(CCC3CCCCC3)cc2)c2cccnc12` [Compound 14, {3-[({5-[4-(2-cyclohexylethyl)phenyl]quinolin-8-yl}methyl)amino]propyl}phosphonic acid] the “lymphocyte count after 24 hours” value was < 1 10^3/μL blood.
`CCCCCCc1ccc(-c2ccc(CNCCO)c3ncccc23)cc1` [Compound 15, 2-({[5-(4-hexylphenyl)quinolin-8-yl]methyl}amino)ethanol] was tested, and the “lymphocyte count after 24 hours” value was < 1 10^3/μL blood.
In the case of `Cc1cccc(CCCc2ccc(-c3ccc(CNCCCP(=O)(O)O)c4ncccc34)cc2F)c1` [Compound 17, (3-{[(5-{3-fluoro-4-[3-(3-methylphenyl)propyl]phenyl}quinolin-8-yl)methyl]amino}propyl)phosphonic acid], the “lymphocyte count after 24 hours” value is reported as < 1 10^3/μL blood.
For `Cc1ccc(CCCc2ccc(-c3ccc(CNCCCP(=O)(O)O)c4ncccc34)cc2F)cc1` [Compound 18, (3-{[(5-{3-fluoro-4-[3-(4-methylphenyl)propyl]phenyl}quinolin-8-yl)methyl]amino}propyl)phosphonic acid], the “lymphocyte count after 24 hours” value was < 1 10^3/μL blood.
In the case of `O=P(O)(O)CCCNCc1ccc(-c2ccc(CCC3CCCCC3)c(F)c2)c2cccnc12` [Compound 20, {3-[({5-[4-(2-cyclohexylethyl)-3-fluorophenyl]quinolin-8-yl}methyl)amino]propyl}phosphonic acid], the “lymphocyte count after 24 hours” value is reported as < 1 10^3/μL blood.
